Laboratory results: patent publication US6660298B1, “Paroxetine tablets and capsules” (priority 2000, dated 2003)
At least one compound was matched to its structure with a doubt left.

Test: Solubilization enhancement with PVP K-30 and citric acid (Preparation C)
Format: physicochemical
Conditions: aqueous solution with water dispersible polymer and acidulent
Protocol: Approximately 1.0, 1.5, 1.6, 2.5 and 3.0 grams of amorphous paroxetine HCl were weighed into five 25-ml volumetric flasks. Ten milliliters of an ethanol-water (20% v/v ethanol) mixture containing 0.25 grams of polyvinyl pyrrolidone (PVP) K-30 and 0.02 grams of citric acid anhydrous were added into each of the five flasks and the flasks were sonicated for 30 minutes. Only the solution in flask 1 became clear while only part of the paroxetine HCl in flasks 2 through 5 dissolved.

Cl.Fc1ccc([C@@H]2CCNC[C@H]2COc2ccc3c(c2)OCO3)cc1 [amorphous paroxetine HCl]
level of solubilization: approximately 300 mg/ml
